Some entries share one result that the patent states for a list of compounds.
Assay: Methylglyoxal (MGO) trapping ability: free MGO concentration by HPLC
Type: biochemical
Conditions: for free methylglyoxal on day 7 compared to control group: day 7 after incubation
Experimental: Specifically, a mixture was prepared by adding methylglyoxal (MGO) to phosphate buffered saline (PBS, Cat no. 10010023, pH 7.4). The compound of the present invention was added to the mixture (MGO+PBS) at a concentration of 1:1 with methylglyoxal (MGO) and reacted, and then cultured at 37° C. for 1 day.

Row | Compound | free methylglyoxal on day 7 compared to control group | decrease of free methylglyoxal concentration on day 1 relative to control group (day 1 after incubation, versus control (PBS+MGO))
1 | NCC(N)Cc1c[nH]c2ccc(O)cc12 (stereo not drawn) [Compound 30, 3-(2,3-diaminopropyl)-1H-indol-5-ol] | significantly eliminated compared to the control group | 
2 | N#CC(N)Cc1c[nH]c2ccc(O)cc12 (stereo not drawn) [Compound 31, 2-amino-3-(5-hydroxy-1H indol-3-yl)propanenitrile] | significantly eliminated compared to the control group | ≥ 97%

From US20240124404A1, “COMPOSITION FOR TREATING DISEASES RELATED TO ADVANCED GLYCATION END PRODUCTS COMPRISING INDOLE DERIVATIVE” (METACEN THERAPEUTICS, priority 2021, published 2024)
